Assay results reported in paper PMC9597353, “Mitoguardin-2–mediated lipid transfer preserves mitochondrial morphology and lipid droplet formation” (The Journal of Cell Biology, 2022).
These are yes or no findings as the source states them, for the method shown. Some results given as binding are weak or reduced against the parent protein; the word gives no strength.

Molecular target: C. elegans MIGA2 cytosolic fragment with the coiled-coil of the linker region and the C-terminal domain (residues 106-496) (C. elegans) (UniProt Q21096)
Assay: crystal structure; sitting drop, 18°C, 0.2 M sodium malonate pH 7.4, 22% PEG3350; spacegroup P3_(1)21, four monomers per asymmetric unit; molecular replacement with an AlphaFold2 model; both purified

- binding: binds
B1: C. elegans MIGA2 cytosolic fragment with the coiled-coil of the linker region and the C-terminal domain (residues 106-496) (domain or fragment, UniProt Q21096 106-496, looked up)
chain: SMNPIEADITSGQELCTELRKTIEKVHHNLEMVKNRSSKDMERSIKIEGILKGLKQVEDEIVLLVPQMEDFRDDNMEFYSVSGGSGYAGSVRTGRSRTLSVLSDDSFRSAVEEFACDIDDIDFVSDAANLDKNELRFLDEGMQAALNGEVKYRKSRMEFCKCDSETDFAAKLYCVRQALTNALKDEHKRVWLAKCGRTLLADFIRHTKQDPVKFFNAYDEMLEYVSNDRNEEQLRQDVEGRGVCETGFYDVAIDFIILDAFEDLKSPPSAVYSVTKNYFMSMSMKYSTLNTIIWSIIKSKRQRLKNPDGFIAKFYNISETVMPAITLGFLGTDERLGELCQYFKEQVVQFVLDVFNTQKVCYRSLEEMSEDVWIVMRNRLEAVQTRMSNEL
notes: C. elegans MIGA (mitoguardin homolog), Uniprot Q21096, residues 106-496: coiled-coil segment of the linker region and the C-terminal domain; Co-purifies with glycerophospholipid from E. coli; Plasmids of the study are in Addgene (192832, 192833, 192834, 192835, 192837, 192866, 192867); also called CeMIGA2_(long); CeMIGA_(long); source: E. coli C43 (DE3), purified (Ni-NTA, sumo protease, second …)
